Source: article PMC7819943, “Rice protein-binding microarrays: a tool to detect cis-acting elements near promoter regions in rice”
This is one part of the list.

Target: T1, OsSMF1 (Oryza sativa, UniProt Q6ZLB0 1-436)
T1 sequence: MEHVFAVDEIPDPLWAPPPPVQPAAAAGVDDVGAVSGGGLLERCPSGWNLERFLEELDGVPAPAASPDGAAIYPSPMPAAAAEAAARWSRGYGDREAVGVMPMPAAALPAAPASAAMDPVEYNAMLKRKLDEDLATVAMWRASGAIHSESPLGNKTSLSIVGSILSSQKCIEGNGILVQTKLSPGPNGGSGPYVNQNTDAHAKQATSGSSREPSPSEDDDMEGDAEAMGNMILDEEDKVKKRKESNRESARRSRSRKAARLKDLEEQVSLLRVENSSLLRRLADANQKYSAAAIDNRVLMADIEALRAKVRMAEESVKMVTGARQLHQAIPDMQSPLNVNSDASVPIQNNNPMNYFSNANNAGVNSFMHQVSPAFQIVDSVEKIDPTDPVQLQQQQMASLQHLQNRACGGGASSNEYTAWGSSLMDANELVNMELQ
Assay: protein-binding microarray (RPBM); PBS, 2% BSA, 51.3 ng/ul salmon testes DNA, 50 uM zinc acetate, 200 nM TF, 25 C, 1 h; high values mean tight binding
Details: protein: recombinant; tags: N-terminal polyhistidine and DsRed monomer fusion (pET32a); chain copies: 2; label: CyDye5-dUTP incorporated in the synthesized complementary strand; 3' TTTTT single-stranded linker to array surface; dsDNA, one strand shown
Outline: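 The binding signal is fluorescence intensity per feature, in arbitrary units, read on an Axon 4000B scanner. Polyhistidine- and DsRed-tagged transcription factors (N-terminal fusions) from E. coli BL21-CodonPlus were purified on Ni–NTA and applied at 200 nM for 1 h at 25 °C to a double-stranded, BSA-blocked custom Agilent array in buffer with 50 µM zinc acetate.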

Point of comparison: “ATCCTCGCATAGATCTGGCGTAGCAGCGGTGCGACGCGGCCGGAGTCACCTAGTGCAG”, binding signal 3290 fluorescence intensity (a.u.). Against it:
- ATCGGGTTGTTGTTGTGTCATTCTCTGCCAAATGGGCCAGCGGAGTCACCTAGTGCAG — higher, 4600 fluorescence intensity (a.u.)
- TGGGTGTTGACGTGTCCCGAGTGGCGGCCCTTCCGCACCCCGGAGTCACCTAGTGCAG — higher, 14500 fluorescence intensity (a.u.)
- CATCACGCGCCGTATAAAGCGACCTTTGCCTGGCTACACGCGGAGTCACCTAGTGCAG — higher, 28700 fluorescence intensity (a.u.)
- AGATGCAATCGATGATGTCAGCAGTAGTAGTAGTACAAACCGGAGTCACCTAGTGCAG — higher, 10500 fluorescence intensity (a.u.)
- AAAACAAAGGACAAACGCAGGCGCTTGCACACTCTATCTTCGGAGTCACCTAGTGCAG — higher, 4220 fluorescence intensity (a.u.)
- CTCCAAGCCAAGCCGGACGCGGACGCCACCGCCCTCGCCTCGGAGTCACCTAGTGCAG — lower, 3150 fluorescence intensity (a.u.)
- ACAAGAGTTTAAATAGTACCAGTACATACAGGTGGCATCTCGGAGTCACCTAGTGCAG — higher, 3400 fluorescence intensity (a.u.)
- CACCACGGTCACCTGCCACGCCTTCCAGAACCCGCCTCTCCGGAGTCACCTAGTGCAG — higher, 5570 fluorescence intensity (a.u.)
- TTGACGGCACAACTTCACCAATCTGAATCACGGACCGCATCGGAGTCACCTAGTGCAG — higher, 3400 fluorescence intensity (a.u.)
- CACTCACCTGAATTCACGCATCTGATGGGCCTCAGCTGCTCGGAGTCACCTAGTGCAG — higher, 4040 fluorescence intensity (a.u.)
- TCATCCATGAAACTCAGCAGCTTACATCTGGGTCCACCTGCGGAGTCACCTAGTGCAG — higher, 3390 fluorescence intensity (a.u.)
- ACTGAATTCACCGTACTGGTGAGTTAAACTTTTCTAATGGCGGAGTCACCTAGTGCAG — higher, 11900 fluorescence intensity (a.u.)
- GCCCTACGTGCTACTACTAGTAGTTGTAGAATCGTGCGTGCGGAGTCACCTAGTGCAG — higher, 3370 fluorescence intensity (a.u.)
- ATTAACCATGGTCCACTGGAAATTTCTGGCTCTGAAATTGCGGAGTCACCTAGTGCAG — higher, 4370 fluorescence intensity (a.u.)
- GGCCTGACCCAAAATCGATGACGAGATATAAGGGTACATCCGGAGTCACCTAGTGCAG — higher, 3500 fluorescence intensity (a.u.)
- CAACGCAGCCATGACGCCCAGCCGCGTCAGCGTAGGGCTCCGGAGTCACCTAGTGCAG — higher, 4820 fluorescence intensity (a.u.)
- CACCATAATATAAAATTTGGCTCCCAATTAATATCAATCCCGGAGTCACCTAGTGCAG — higher, 25000 fluorescence intensity (a.u.)
- GGAATTAAAATCAAGTCAGCAAGCCATGTAGATGTCGTGCCGGAGTCACCTAGTGCAG — higher, 4520 fluorescence intensity (a.u.)
- ATATTTAACATTAGTATTGTAGAGACATTCATACGCATGACGGAGTCACCTAGTGCAG — lower, 3200 fluorescence intensity (a.u.)
- CTTGCTGTGTTTTCTTCTTCCTCCCTACTACTCGGTTTCTCGGAGTCACCTAGTGCAG — higher, 4220 fluorescence intensity (a.u.)
- TCCACCATTGACCAATGCCACGTCCTGCCAAATCCTCCTCCGGAGTCACCTAGTGCAG — higher, 13600 fluorescence intensity (a.u.)
- TTTTCCGCGTCTTTTCATCTCACTTACGTGTGGGACCCACCGGAGTCACCTAGTGCAG — higher, 5790 fluorescence intensity (a.u.)
- GAGACGCGGAGAGTTGACACGGTGTCATTTATTGCGACCCCGGAGTCACCTAGTGCAG — higher, 4030 fluorescence intensity (a.u.)
- TAAGTGCAGTTTTAACATTGTTTATGCTCAACGTTTAATCCGGAGTCACCTAGTGCAG — higher, 19400 fluorescence intensity (a.u.)
- CGGATCCCTGAACGTGTCGTGGGTGTCATATAGGTCCAAGCGGAGTCACCTAGTGCAG — higher, 3480 fluorescence intensity (a.u.)
- TTCACCCACGCCACGCCGCCACCGCCTCGCTTTTCCTTCTCGGAGTCACCTAGTGCAG — lower, 3180 fluorescence intensity (a.u.)
- ACAGGTCATAGAAAGATCGGTGACGGGCTGACGGTGAACGCGGAGTCACCTAGTGCAG — higher, 4350 fluorescence intensity (a.u.)
- CGTATGATTGTTTGCTACCTTATGATGTCAGATTCCTGATCGGAGTCACCTAGTGCAG — higher, 7010 fluorescence intensity (a.u.)
- TGACCAAGGCAGCAGCAGCAGCAGCTAGCTAGCTGAGTCACGGAGTCACCTAGTGCAG — higher, 6750 fluorescence intensity (a.u.)
- GCCGCCGCCACTTACGCCGACACCCTCCTCCACATCGCCGCGGAGTCACCTAGTGCAG — higher, 3350 fluorescence intensity (a.u.)
- AGCTCGAGACCCTTCCACCTCCGTGTCGTCACCGGAAATCCGGAGTCACCTAGTGCAG — higher, 3380 fluorescence intensity (a.u.)
- GGGTATACTATGACGTTATAGTGATGTGTATACGTGTACGCGGAGTCACCTAGTGCAG — higher, 6500 fluorescence intensity (a.u.)
- CAAGTCGAGACAGCAGGAAGCTGACGCGTTACAAGGTTTGCGGAGTCACCTAGTGCAG — higher, 5220 fluorescence intensity (a.u.)
- ACTTTGGGGTGCCAAGGTCACGTCACCATCATTCCAACGTCGGAGTCACCTAGTGCAG — higher, 9270 fluorescence intensity (a.u.)
- TATGTTTAGTTTCGTTGTATTATGATGTGTACTATGTTGGCGGAGTCACCTAGTGCAG — higher, 3990 fluorescence intensity (a.u.)
- GACGAAGAGGGAGCTGGACAAAAGATAAGTGGTAGAGGGGCGGAGTCACCTAGTGCAG — higher, 15400 fluorescence intensity (a.u.)
- TGTACGTGCATCCGCGTGGAGCGGGATGCGGGAGCGCAACCGGAGTCACCTAGTGCAG — lower, 3240 fluorescence intensity (a.u.)
- AGTGGACTGGCCGTAGAGGTGTATAATGGCAACATTTGACCGGAGTCACCTAGTGCAG — higher, 4080 fluorescence intensity (a.u.)
- CACGACGCGGCGGCGGAGGTGTTGCACCGTCAGCCACGCCCGGAGTCACCTAGTGCAG — higher, 5900 fluorescence intensity (a.u.)
- GCCAACACACATCATCAGTAGCTAGCTAGCTACCTTTGTGCGGAGTCACCTAGTGCAG — lower, 3150 fluorescence intensity (a.u.)
- TCACTCCCTCCCACTCCAACCACCACATCAGCATCAGCAACGGAGTCACCTAGTGCAG — higher, 7390 fluorescence intensity (a.u.)
